Test [1] has as its target Mouse synaptophysin (endogenous, from brain synaptosomes or cultured neurons) (mouse) (UniProt Q62277). Description: co-immunoprecipitation of SYP from cortical neurons treated with Aβ42 or scrambled peptide, immunoblot for VAMP2, densitometry [E]. On the technique in general: In western blotting, separated proteins are transferred to a membrane and probed.
The target is the same in test [2]. Description: co-immunoprecipitation with anti-Syp antibody from murine hippocampal neurons, immunoblot for Syp and Syb, with or without 50 nM Aβ(1-42) overnight.
The target of the next test is BioPure recombinant Aβ42 (UniProt P05067). Description: pull-down of whole brain synaptosome proteins (B6 WT or SYP -/- KO) on Aβ42 coupled to AminoLink resin, western blot [A].
Test [3] deals with Mouse VAMP2 (endogenous, from brain synaptosomes or cultured neurons) (mouse) (UniProt P63044). Description: anti-VAMP2 immunoprecipitation from SYP -/- mouse whole brain synaptosomes, western blot.
Test [4] shares this target. Description: immunoprecipitation with anti-VAMP2 antibody from SYP -/- whole brain synaptosomes, western blot.

By UniProt entry, the sequences of proteins in these tests, tags left out. Residues count along the entry.
UniProt Q62277: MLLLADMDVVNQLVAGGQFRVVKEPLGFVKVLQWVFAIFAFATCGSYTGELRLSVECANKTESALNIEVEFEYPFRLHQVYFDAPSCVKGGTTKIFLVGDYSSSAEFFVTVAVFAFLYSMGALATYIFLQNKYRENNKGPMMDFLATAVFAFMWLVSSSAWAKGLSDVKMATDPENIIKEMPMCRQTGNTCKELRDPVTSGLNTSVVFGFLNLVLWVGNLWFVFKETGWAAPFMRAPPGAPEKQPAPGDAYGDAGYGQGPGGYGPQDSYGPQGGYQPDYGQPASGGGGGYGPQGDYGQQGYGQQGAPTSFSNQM
UniProt P05067, residues 672-713: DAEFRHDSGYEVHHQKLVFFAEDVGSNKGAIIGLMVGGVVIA
UniProt P63044, residues 2-116: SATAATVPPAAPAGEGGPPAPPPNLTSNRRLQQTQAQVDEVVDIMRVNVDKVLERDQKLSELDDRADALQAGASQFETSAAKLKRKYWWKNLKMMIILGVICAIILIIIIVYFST
UniProt Q8BGN8: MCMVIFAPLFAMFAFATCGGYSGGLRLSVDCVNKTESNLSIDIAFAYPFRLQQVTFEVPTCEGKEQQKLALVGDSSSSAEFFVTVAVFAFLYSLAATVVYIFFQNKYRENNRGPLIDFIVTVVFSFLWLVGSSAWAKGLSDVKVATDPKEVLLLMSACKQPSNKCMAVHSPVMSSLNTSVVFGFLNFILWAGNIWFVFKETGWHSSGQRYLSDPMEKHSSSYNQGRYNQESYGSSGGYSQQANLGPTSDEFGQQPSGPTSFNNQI

These are yes or no findings as the source states them, for the method shown. For some assays here: In cells and extracts the contact can be indirect. Some results given as binding are weak or reduced against the parent protein; the word gives no strength.

Consider “Mouse VAMP2 (endogenous, from brain synaptosomes or cultured neurons) (from UniProt P63044 2-116)”, for which the binding result in test [1] and in test [2] was “binds” throughout.

For the substance “Mouse synaptophysin (endogenous, from brain synaptosomes or cultured neurons) (from UniProt Q62277 1-314)”, the binding result with BioPure recombinant Aβ42 was “binds”.

As for “Mouse synaptoporin (endogenous, from brain synaptosomes) (from UniProt Q8BGN8 1-265)”, the binding result in test [3] and in test [4] was “binds” in each case.

Values taken from patent publication US20170183388A1.
